Some results were stated once for a whole list of compounds, not compound by compound.
Test system: human hepatocytes
Experiment: Hepatocyte intrinsic clearance assay (metabolic stability), human hepatocytes
Format: in vitro ADME
Description: The liver is an important organ in the body for drug metabolism. This Example describes hepatocyte intrinsic clearance assays using both human and rat hepatocytes to evaluate the metabolic stability of the indole compounds disclosed herein. The parameters measured include t1/2 (half-life), CLint (intrinsic clearance), and EH (hepatic extraction ratio).
Testosterone (Lot FE111011-01) was obtained from Cerilliant (Round Rock, Tex.). 7-hydroxycoumarin (Lot 11631ED) was obtained from Sigma Aldrich (St. Louis, Mo.). […]
The residual compound remaining (% R) was determined from LC-MS peak areas by comparison to the zero time point. Metabolic half-life (t1/2) and intrinsic clearance (CLint) values were calculated from the slope of the plot of ln (% R) vs. time and the concentration of hepatocytes present in the incubation. Percent remaining at 60 minutes was calculated by plugging in the 60 minute value into the slope equation generated by the percent remaining time points.
In vivo hepatic clearance CLH was calculated using the well stirred liver model according to the following equation: […]
Hepatic extraction ratio EH was calculated using the following equation: […]

Q: With N[C@@H](c1csc(C(=O)c2c[nH]c3cc(F)ccc23)n1)C(F)(F)F [ARI-224] as the compound, how does the “CLint lower than that of ARI-164 (fold improvement)” value read?
A: ≥ 4 ×

Q: Which “CLint lower than that of ARI-164 (fold improvement)” value does the source give for CC(C)(N)c1csc(C(=O)c2c[nH]c3cc(F)ccc23)n1 [ARI-226, (4-(2-aminopropan-2-yl)thiazol-2-yl)(6-fluoro-1H-indol-3-yl)methanone] here?
A: ≥ 4 ×
